Results are given in words; binding and its absence hold for the method and conditions named. In cells and extracts the contact can be indirect. These calls come from enrichment with a bait or labelling near it, and not all partners need be listed.
Tests used:
[1] = target: Flag-tagged estrogen receptor beta (Flag-ERβ) (UniProt Q92731); test: affinity purification with mass spectrometry; anti-Flag immunoprecipitation (antibody cross-linked to beads) from extracts of Ishikawa cells expressing Flag-ERα, Flag-ERβ or Flag control; elution with Flag peptide, trypsin digest, MudPIT (LTQ-Orbitrap)
[2] = target: Flag-tagged estrogen receptor alpha (Flag-ERα) (human) (UniProt P03372); test: as above

The chains behind the UniProt entries cited, without tags or fusion partners.
UniProt Q92731: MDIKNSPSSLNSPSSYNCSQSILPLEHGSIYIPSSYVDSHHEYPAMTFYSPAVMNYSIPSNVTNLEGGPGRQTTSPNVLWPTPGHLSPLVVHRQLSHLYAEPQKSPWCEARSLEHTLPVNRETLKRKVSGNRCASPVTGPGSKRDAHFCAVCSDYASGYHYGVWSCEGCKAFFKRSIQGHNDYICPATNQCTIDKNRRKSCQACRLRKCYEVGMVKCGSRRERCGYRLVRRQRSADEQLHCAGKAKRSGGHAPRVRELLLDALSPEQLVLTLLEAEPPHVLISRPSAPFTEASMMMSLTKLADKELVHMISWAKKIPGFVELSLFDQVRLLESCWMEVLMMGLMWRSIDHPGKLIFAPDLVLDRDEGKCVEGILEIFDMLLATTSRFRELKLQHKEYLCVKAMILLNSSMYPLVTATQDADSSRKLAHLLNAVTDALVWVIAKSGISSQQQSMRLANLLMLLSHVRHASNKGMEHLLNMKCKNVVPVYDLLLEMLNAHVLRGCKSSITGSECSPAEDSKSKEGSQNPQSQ
UniProt P03372: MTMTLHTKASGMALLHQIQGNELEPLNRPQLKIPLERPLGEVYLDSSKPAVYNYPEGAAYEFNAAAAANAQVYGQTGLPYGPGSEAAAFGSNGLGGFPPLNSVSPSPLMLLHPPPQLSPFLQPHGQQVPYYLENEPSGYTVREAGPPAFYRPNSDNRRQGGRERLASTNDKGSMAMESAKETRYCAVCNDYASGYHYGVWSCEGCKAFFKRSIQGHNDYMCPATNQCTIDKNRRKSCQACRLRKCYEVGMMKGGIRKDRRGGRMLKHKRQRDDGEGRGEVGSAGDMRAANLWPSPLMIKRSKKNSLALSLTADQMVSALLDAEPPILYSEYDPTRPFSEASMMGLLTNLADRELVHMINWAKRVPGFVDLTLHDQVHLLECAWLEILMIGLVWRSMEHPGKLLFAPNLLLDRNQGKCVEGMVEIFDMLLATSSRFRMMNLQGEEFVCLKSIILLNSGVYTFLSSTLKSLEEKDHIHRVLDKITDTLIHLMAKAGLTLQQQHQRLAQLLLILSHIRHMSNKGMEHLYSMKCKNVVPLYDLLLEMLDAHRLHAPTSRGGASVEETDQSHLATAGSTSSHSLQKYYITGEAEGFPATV
UniProt Q13547: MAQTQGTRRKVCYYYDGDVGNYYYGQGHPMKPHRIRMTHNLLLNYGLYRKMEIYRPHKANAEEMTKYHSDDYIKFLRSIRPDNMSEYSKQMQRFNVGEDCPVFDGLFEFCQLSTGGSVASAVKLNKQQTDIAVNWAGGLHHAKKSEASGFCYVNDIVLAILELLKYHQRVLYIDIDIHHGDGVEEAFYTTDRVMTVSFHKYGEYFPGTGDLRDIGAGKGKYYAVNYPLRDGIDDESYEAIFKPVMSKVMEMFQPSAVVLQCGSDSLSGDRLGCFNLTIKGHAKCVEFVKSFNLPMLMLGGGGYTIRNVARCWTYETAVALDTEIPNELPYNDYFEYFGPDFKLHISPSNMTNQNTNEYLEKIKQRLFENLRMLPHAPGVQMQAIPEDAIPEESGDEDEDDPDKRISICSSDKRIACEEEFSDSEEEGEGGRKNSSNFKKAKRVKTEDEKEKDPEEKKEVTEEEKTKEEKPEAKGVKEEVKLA
UniProt Q15022: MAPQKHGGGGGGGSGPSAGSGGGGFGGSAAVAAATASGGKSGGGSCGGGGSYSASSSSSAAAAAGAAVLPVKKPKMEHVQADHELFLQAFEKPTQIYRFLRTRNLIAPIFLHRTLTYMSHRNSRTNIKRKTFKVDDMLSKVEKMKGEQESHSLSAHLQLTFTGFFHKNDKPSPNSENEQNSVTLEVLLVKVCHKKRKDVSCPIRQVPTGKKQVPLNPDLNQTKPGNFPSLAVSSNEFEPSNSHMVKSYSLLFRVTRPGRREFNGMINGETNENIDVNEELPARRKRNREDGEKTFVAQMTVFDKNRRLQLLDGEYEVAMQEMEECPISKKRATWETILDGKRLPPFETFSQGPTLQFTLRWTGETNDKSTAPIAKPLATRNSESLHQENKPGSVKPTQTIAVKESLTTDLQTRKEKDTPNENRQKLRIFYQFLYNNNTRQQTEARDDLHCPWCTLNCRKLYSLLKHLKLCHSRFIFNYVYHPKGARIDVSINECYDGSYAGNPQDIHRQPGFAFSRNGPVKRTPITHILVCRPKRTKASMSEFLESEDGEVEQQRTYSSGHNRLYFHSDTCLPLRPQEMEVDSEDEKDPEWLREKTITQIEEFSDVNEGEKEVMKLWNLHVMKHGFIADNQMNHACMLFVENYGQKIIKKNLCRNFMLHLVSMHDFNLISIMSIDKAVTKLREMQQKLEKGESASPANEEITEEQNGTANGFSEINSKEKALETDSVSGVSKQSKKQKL

| Substance | binding [1] | binding [2] |
| --- | --- | --- |
| histone deacetylase 1 (HDAC1) (from UniProt Q13547 1-482) (enzyme) | binds |  |
| suppressor of Zeste 12 Protein (SUZ12) (from UniProt Q15022 1-739) | binds | binds |

Source: paper PMC9059368
